The list shows only some results of the screen, not a fair sample: its compounds were picked by chemical class. Not every dose and run of a compound is shown. T/C gives the treated animals as a percentage of the vehicle group. Where survival is the endpoint, this PubChem deposit counts one and a half times the control or more as active, and values a quarter to a half above the control carry no call in these data; other NCI protocols may use other cut-offs. Some T/C values are marked as having no survivor count here; that says nothing about deaths at the dose. Schedule codes are those of the source, read here as Q, the interval in days (D) or hours (H), X, the number of doses. Some entries were tested several times; their values stand side by side, smallest first.
System: BDF1 mice, L1210 terephthalanilide-resistant leukemia ip, survival T/C
Test: NCI In Vivo Anticancer Drug Screen. Data for tumor model L1210 Leukemia resistant to A Terephthalanilide; NSC 38280 (intraperitoneal) in B6D2F1 (BDF1) mice
Settings: T/C endpoint: mean survival time, schedule: Q01DX010 (ip), vehicle: saline, higher T/C = longer survival
Protocol: The antitumor activity of compounds was measured in mice bearing transplantable tumors. Survival or tumor size were measured and the results are expressed as the measurement made in the treated group (T) divided by the measurement made in the vehicle treated control group (C). The tumor model used in this assay is L1210 Leukemia resistant to A Terephthalanilide; NSC 38280 (intraperitoneal) in B6D2F1 (BDF1) mice

CN(CCCl)CCCl
T/C (dose: 0.13 mg/kg/injection): 115 [survivor count not shown] and 130 % of control [survivor count not shown]
T/C (dose: 0.25 mg/kg/injection): 115 [survivor count not shown] and 118 % of control [survivor count not shown]
T/C (dose: 0.5 mg/kg/injection): 91 [survivor count not shown] and 113 % of control [survivor count not shown]
